We go through two substances from publication PMC11676169.

Protein sequences, listed by entry. Tags and fused reporters are not part of them.
UniProt P12956: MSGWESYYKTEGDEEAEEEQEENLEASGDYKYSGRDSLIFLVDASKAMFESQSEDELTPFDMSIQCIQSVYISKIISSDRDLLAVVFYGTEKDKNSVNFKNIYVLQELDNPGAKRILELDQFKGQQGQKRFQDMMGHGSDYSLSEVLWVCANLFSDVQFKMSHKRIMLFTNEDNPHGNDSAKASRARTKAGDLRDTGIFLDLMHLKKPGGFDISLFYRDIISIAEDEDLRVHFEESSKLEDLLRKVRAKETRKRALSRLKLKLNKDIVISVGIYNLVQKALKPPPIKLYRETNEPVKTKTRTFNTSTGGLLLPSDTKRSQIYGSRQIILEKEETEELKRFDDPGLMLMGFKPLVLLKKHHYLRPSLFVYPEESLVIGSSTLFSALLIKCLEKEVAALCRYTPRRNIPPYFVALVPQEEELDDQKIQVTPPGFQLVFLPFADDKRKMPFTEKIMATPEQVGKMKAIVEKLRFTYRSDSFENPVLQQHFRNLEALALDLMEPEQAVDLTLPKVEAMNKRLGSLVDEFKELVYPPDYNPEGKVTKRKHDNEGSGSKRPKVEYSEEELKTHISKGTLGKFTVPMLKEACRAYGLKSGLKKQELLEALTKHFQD
UniProt P13010: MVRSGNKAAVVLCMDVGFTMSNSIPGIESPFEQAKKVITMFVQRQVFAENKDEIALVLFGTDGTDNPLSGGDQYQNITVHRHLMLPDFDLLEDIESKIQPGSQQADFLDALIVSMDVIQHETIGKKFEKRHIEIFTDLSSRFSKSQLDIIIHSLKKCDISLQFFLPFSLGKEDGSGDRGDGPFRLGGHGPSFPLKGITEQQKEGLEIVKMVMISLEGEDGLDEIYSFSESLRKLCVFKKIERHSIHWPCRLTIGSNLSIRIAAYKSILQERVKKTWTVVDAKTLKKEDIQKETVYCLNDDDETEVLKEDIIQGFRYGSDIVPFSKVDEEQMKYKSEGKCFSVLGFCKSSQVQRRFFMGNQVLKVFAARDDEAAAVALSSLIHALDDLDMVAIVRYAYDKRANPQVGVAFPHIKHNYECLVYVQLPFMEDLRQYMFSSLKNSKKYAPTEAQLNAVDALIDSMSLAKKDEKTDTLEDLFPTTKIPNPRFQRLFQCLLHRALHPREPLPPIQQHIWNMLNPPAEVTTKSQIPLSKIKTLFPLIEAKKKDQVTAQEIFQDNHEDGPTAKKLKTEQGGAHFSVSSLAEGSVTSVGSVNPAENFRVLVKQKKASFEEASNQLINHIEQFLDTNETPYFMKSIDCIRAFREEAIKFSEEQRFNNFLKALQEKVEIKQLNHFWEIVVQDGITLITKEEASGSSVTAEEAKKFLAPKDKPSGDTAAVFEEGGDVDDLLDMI

The experiment deals with T1, double-tagged BCAT1 (BCAT1 myc-DDK), stably expressed in CUTLL1 T-ALL cells (UniProt P54687).
T1 sequence: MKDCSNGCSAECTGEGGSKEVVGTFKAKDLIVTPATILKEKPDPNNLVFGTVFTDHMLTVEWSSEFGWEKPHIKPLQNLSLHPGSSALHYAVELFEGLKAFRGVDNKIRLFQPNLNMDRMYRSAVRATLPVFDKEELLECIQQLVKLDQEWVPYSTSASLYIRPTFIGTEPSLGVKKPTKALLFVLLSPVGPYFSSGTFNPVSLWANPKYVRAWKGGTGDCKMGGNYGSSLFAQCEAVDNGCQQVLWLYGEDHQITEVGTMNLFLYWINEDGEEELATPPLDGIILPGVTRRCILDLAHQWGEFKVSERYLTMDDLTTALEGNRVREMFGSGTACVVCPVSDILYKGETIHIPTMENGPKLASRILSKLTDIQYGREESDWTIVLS
The experiment is described as follows: affinity purification with mass spectrometry; tandem affinity purification from cytoplasmic extracts of CUTLL1 cells expressing BCAT1 myc/DDK (NaCl adjusted to 150 mM): anti-FLAG M2 beads, FLAG peptide elution, then anti-c-Myc beads, c-Myc peptide elution; LC-MS/MS; control: mock-transduced CUTLL1.

Results are given in words; binding and its absence hold for the method and conditions named. Binding seen in cells or lysates may run through a third protein. Here binding means that the protein was enriched with, or labelled near, the bait; the list need not be complete. Sequences can lack the tags named with a protein.

On to “KU70 (XRCC6), endogenous in CUTLL1 cells (from UniProt P12956 1-609)”, for which the binding entry is listed as “binds”. Next, “KU80 (XRCC5), endogenous in CUTLL1 cells (from UniProt P13010 1-732)”: “binds”.
